One molecule from paper PMC5933801, “Cryo-EM structure of infectious bronchitis coronavirus spike protein reveals structural and functional evolution of coronavirus spike proteins” (PLoS Pathogens, 2018) can be followed below.

In this test the target is IBV spike ectodomain (avian infectious bronchitis coronavirus, strain M41) (avian infectious bronchitis coronavirus (IBV), strain M41) (UniProt P12651). The experiment in a line: cryo-EM structure; IBV spike ectodomain 0.35 mg/ml in 2 mM Tris pH7.2 and 20 mM NaCl, plunge-frozen; pre-fusion state; three-fold noncrystallographic symmetry constraints in refinement; both purified.

No constants are given. Whether binding was seen depends on the method and setting. Some results given as binding are weak or reduced against the parent protein; the word gives no strength.

B1: IBV spike ectodomain (avian infectious bronchitis coronavirus, strain M41) (domain or fragment)
chain: LYDSSSYVYYYQSAFRPPNGWHLHGGAYAVVNISSESNNAGSSPGCIVGTIHGGRVVNASSIAMTAPSSGMAWSSSQFCTAHCNFSDTTVFVTHCYKYDGCPITGMLQKNFLRVSAMKNGQLFYNLTVSVAKYPTFKSFQCVNNLTSVYLNGDLVYTSNETTDVTSAGVYFKAGGPITYKVMRKVKALAYFVNGTAQDVILCDGSPRGLLACQYNTGNFSDGFYPFINSSLVKQKFIVYRENSVNTTFTLHNFTFHNETGANPNPSGVQNILTYQTQTAQSGYYNFNFSFLSSFVYKESNFMYGSYHPSCNFRLETINNGLWFNSLSVSIAYGPLQGGCKQSVFSGRATCCYAYSYGGPSLCKGVYSGELDLNFECGLLVYVTKSGGSRIQTATEPPVITRHNYNNITLNTCVDYNIYGRTGQGFITNVTDSAVSYNYLADAGLAILDTSGSIDIFVVQGEYGLTYYKVNPCEDVNQQFVVSGGKLVGILTSRNETGSQLLENQFYIKITNGTRRFRRSITENVANCPYVSYGKFCIKPDGSIATIVPKQLEQFVAPLLNVTENVLIPNSFNLTVTDEYIQTRMDKVQINCLQYVCGNSLDCRDLFQQYGPVCDNILSVVNSIGQKEDMELLNFYSSTKPAGFNTPFLSNVSTGEFNISLLLTTPSSPRRRSFIEDLLFTSVESVGLPTDDAYKNCTAGPLGFLKDLACAREYNGLLVLPPIITAEMQTLYTSSLVASMAFGGITAAGAIPFATQLQARINHLGITQSLLLKNQEKIAASFNKAIGRMQEGFRSTSLALQQIQDVVNKQSAILTETMASLNKNFGAISSVIQEIYQQLDAIQANAQVDRLITGRLSSLSVLASAKQAEHIRVSQQRELATQKINECVKSQSIRYSFCGNGRHVLTIPQNAPNGIVFIHFSYTPDSFVNVTAIVGFCVKPANASQYAIVPANGRGIFIQVNGSYYITARDMYMPRAITAGDIVTLTSCQANYVSVNKTVITTFVDNDDFDFNDELSKWWNDTKHELPDFDKFNYTVPILDIDSEIDRIQGVIQGLNDSLIDLEKLS
modifications: glycans N-linked to 20 sites
notes: Spike protein of avian infectious bronchitis coronavirus (IBV) strain M41, GenBank ABI26423.1, ectodomain residues 20-1084; transmembrane anchor and intracellular domain replaced by GCN4 and His6 tags; The structural model holds residues 21-1022 except 702-710; The GCN4 tag is a trimerization tag; also called trimeric IBV spike ectodomain; source: Sf9 insect cells (Bac-to-Bac), harvested from …
On to B1, for which the binding result is on record as “binds”.
